Experimental data: PubChem BioAssay (EPA / NIEHS)
Values joined by “and” are separate entries in the source; they are usually repeats but may differ in a detail not shown here. Identical values can stand only once. This list was built around the results that the source calls inconclusive (neither active nor inactive); the mix of calls is not that of the screen. Potencies beside an inconclusive call are fits to weak or partial responses and may not hold up. Active and inactive are the calls of the source. How the source made its calls: active means hit-call score of the fitted dose curve at least 0.9, where 1 is the maximum; inconclusive means response in the unintended direction; inactive means score below 0.9.

Protein sequences, listed by entry. Tags and fused reporters are not part of them. Lines headed by an entry give the natural chain unless they say otherwise; changes in a name come on top.
UniProt Q14994: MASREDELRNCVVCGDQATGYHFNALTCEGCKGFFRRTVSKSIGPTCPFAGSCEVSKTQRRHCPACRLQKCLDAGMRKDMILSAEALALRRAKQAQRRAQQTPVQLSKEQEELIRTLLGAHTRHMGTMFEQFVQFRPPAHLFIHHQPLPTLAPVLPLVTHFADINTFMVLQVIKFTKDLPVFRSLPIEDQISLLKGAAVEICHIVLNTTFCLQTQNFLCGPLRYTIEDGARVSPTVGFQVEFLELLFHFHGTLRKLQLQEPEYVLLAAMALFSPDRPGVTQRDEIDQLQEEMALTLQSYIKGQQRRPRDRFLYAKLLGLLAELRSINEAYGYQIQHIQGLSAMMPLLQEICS
UniProt Q01717: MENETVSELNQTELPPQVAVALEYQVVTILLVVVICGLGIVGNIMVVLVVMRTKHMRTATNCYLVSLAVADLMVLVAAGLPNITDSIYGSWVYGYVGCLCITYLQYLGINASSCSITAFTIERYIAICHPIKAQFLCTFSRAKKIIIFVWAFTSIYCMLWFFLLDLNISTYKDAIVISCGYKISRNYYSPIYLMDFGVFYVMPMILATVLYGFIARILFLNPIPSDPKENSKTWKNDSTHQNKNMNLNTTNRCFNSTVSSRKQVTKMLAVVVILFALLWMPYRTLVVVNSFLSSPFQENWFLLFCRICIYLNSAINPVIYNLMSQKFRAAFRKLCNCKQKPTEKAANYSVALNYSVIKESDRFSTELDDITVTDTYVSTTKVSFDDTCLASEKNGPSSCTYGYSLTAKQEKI

Target: human Constitutive Androstane Receptor (CAR), NR1I3 (gene 9970) (UniProt Q14994)
Experiment: NVS_NR_hCAR_Agonist: NovaScreen (NVS) Nuclear Receptor Binding Assay for human Constitutive Androstane Receptor Agonism (CAR) (AID 2283328)
In short: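 Cell-free TR-FRET binding readout with extracted human CAR protein, read 1 h after dosing. Gain of signal fitted against DMSO baseline. Single-concentration duplicates at 25 uM, then concentration-response up to 50 uM for actives.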

Row | Compound | AC50 | outcome
1 | CCCN(CCC)c1c([N+](=O)[O-])cc(S(N)(=O)=O)cc1[N+](=O)[O-] | inconclusive: 6.89 µM | 
2 | CCOP(=S)(OCC)SCSP(=S)(OCC)OCC | inconclusive: 25 µM | 
3 | CCC(C)(C)c1ccc(O)c(C(C)(C)CC)c1 | inconclusive: 25 µM | 
4 | c1ccc2c(c1)-c1cccc3cccc-2c13 |  | inactive

Target: rat Thyrotropin Releasing Hormone Receptor (TRH), Trhr (gene 25570) (UniProt Q01717)
Experiment: NVS_GPCR_rTRH: NovaScreen (NVS) G Protein-Coupled Receptor Assay for rat Thyrotropin Releasing Hormone Receptor (TRH) (AID 2283329);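 further: hit means lower bound tracer signal versus DMSO baseline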
In short: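 Cell-free radioligand binding on rat forebrain membranes; bound tracer measured by filter-based scintillation counting 4 hours after dosing. Loss of signal versus DMSO baseline indicates displacement; primary screen at 25 uM in duplicate, actives then run in concentration series.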

Row | Compound | AC50 | outcome
5 | c1ccc(P(c2ccccc2)c2ccccc2)cc1 | inconclusive: 0.148 µM | 
6 | COC(=O)c1c(C(F)F)nc(C(F)(F)F)c(C2=NCCS2)c1CC(C)C | active: 25 µM and inconclusive: 25 µM | 
7 | Oc1cccc2cccnc12 |  | inactive
8 | COP(=S)(OC)Oc1nc(Cl)c(Cl)cc1Cl | inconclusive: 25 µM | 
9 | O=[N+]([O-])c1c(Cl)c(Cl)c(Cl)c(Cl)c1Cl |  | inactive
10 | C[C@]12CCC(=O)C[C@@H]1CC[C@@H]1[C@@H]2CC[C@]2(C)[C@@H](O)CC[C@@H]12 | inconclusive: 12 µM | 
11 | CCOP(=O)(OCC)Oc1nc(Cl)c(Cl)cc1Cl | inconclusive: 0.199 µM | 
12 | CCNc1nc(Cl)nc(NCC)n1 | inconclusive: 0.0279 µM | 
13 | CC(C)N(C(=O)CCl)c1ccccc1 |  | inactive
14 | CN(C)CCO | inconclusive: 6.89 µM | 
15 | O=c1[nH]c(=O)[nH]c(=O)[nH]1 |  | inactive
16 | CCCCCCCCCCCCN(C)C | inconclusive: 25 µM | 
17 | CCCCN(CC)C(=O)SCCC | inconclusive: 6.9 µM | 
18 | O=[N+]([O-])c1cc(C(F)(F)F)c(Cl)c([N+](=O)[O-])c1Nc1ncc(C(F)(F)F)cc1Cl |  | inactive
19 | O=P(O)(Oc1ccccc1)Oc1ccccc1 |  | inactive
20 | O=C(Nc1ccccc1)Nc1cnns1 | inconclusive: 6.15 µM | 
21 | CC1(C)C(C=C(Cl)Cl)C1C(=O)OC(C#N)c1ccc(F)c(Oc2ccccc2)c1 (stereo unspecified) | inconclusive: 5.35 µM | 
